Data on 59 compounds can be found in PubChem BioAssay AID2685 (National Center for Advancing Translational Sciences (NCATS), 2010).

As a reminder, the AC50 is the concentration at which the activity in the assay is half-maximal. A higher AC50 goes with activity only at high concentration.

The list shows a part of the results. These are further read-outs of the screen, such as a control signal, another cell line or another target. No call is given for them. Compounds called inactive in the main read-out are mostly missing here. The note in brackets gives the kind of curve behind each potency; many fits are weak.

The nature of this assay: qHTS Assay for Lipid Storage Modulators in Drosophila S3 Cells.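 For cell number change: cells counted by Cell Tracker Red CMTPX staining in the red channel.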 Conditions: BODIPY lipid droplet fluorescence, 18-24 h; for cell number change: measured here: cell count max response, cells fed with added oleic acid. The essentials:
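Drosophila S3 cells loaded with oleic acid (400 uM, as added) and compounds at several concentrations; lipid droplets imaged by 488-nm laser-scanning cytometry, 500–530 nm intensity and object ratio to cell channel. Percent activity normalized to 20 uM Triacsin C.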
(qHTS replaces the single test concentration by a dilution series.)

The mark [1] stands for this setting: measured here: cell number channel AC50, cells fed with added oleic acid.
Where [2] appears, read: measured here: lipid fluorescence (Fed channel) AC50, cells fed with added oleic acid.

On to `CC(=O)Nc1ccc(S(=O)(=O)NC2CC(=O)N(c3cccc(F)c3)C2)cc1` (stereo not given), for which the AC50 under setting [1] was 2.59 µM [rising, single point].

As to `Cc1nc(CNS(=O)(=O)c2ccc(Br)cc2)cs1`, the cell number change was -6.02%. For the same compound, under setting [2], the AC50 was 6.51 µM [falling, single point].

Regarding `C[N+]1(CC(=O)Nc2ccccc2Cl)CCN(C(=O)c2cccs2)CC1`, the cell number change is -32.5%. Besides, the AC50 under setting [1] was 29.1 µM [falling, single point]. For the same compound, the AC50 under setting [2] is 1.46 µM [falling, full curve, poor fit].

Take `Cc1cccc(Nc2nnc(SCC(=O)c3c(N)n(C4CC4)c(=O)[nH]c3=O)s2)c1C`: the cell number change was -2.14%. Further, under setting [2], the AC50 is 13 µM [rising, partial curve].

For the compound `COc1cc(/C=C(\C#N)c2nc3c(s2)CC(C)CC3)ccc1O` (stereo not given), the cell number change is -27.9%. Besides, the AC50 under setting [2] is 23.1 µM [falling, single point].

As for `C/C(Cn1cnc([N+](=O)[O-])n1)=N\NC(=O)c1ccc(Br)cc1`, the cell number change is 17.2%. Further, under setting [2], the AC50 is 11.6 µM [rising, partial curve].

Turning to `CN1CCN(C(=O)CN(Cc2ccccc2)S(C)(=O)=O)CC1`, the cell number change was 19%. Also, under setting [2], the AC50 was 5.8 µM [falling, full curve].

Consider `Cc1nn2cc(-c3ccc(N)cc3)nc2s1`, for which the cell number change is -12.5%.

As to `CCc1nn2c(=O)c(S(=O)(=O)Nc3ccccc3)c(C)nc2s1`, the cell number change was -2.63%. Moreover, under setting [2], the AC50 was 6.31 µM [falling, partial curve, poor fit].

In the case of `O=C(CC(c1ccccc1)c1ccccc1O)NCCc1ccccc1` (stereo not given), the cell number change is 25.7%. The AC50 under setting [2] was 29.1 µM [rising, single point].

Take `CCOC(=O)c1c(-c2ccc(C)cc2)csc1NC(=O)C1CC=CCC1C(=O)O` (stereo not given): the cell number change was -1.79%.

Consider `O=C(CSc1nnc(NC(=O)C2CCC2)s1)NC1CC1`, for which the cell number change came out at 0.415%. Moreover, the AC50 under setting [2] is 0.82 µM [falling, single point].

`C/C(CC(=O)Nc1cc(C)ccn1)=N\NC(=O)c1ccccc1C`: the cell number change was found to be 28.5%. Besides, under setting [2], the AC50 is 29.1 µM [rising, single point].

Turning to `CC(=O)c1c(C)nn(C(=O)c2cccs2)c1C`, the cell number change was -16.6%. Besides, the AC50 under setting [1] is 0.0517 µM [falling, full curve, poor fit]. Under setting [2], the AC50 was 23.1 µM [rising, single point].

In the case of `Cc1cccc(NC(=O)c2ccc3c(c2)CCN3S(C)(=O)=O)c1`, the cell number change is -7.97%. In addition, under setting [2], the AC50 is 32.6 µM [rising, single point].

Take `CC(=O)c1ccc(NC(=O)c2ccc3nc(-c4ccco4)c(-c4ccco4)nc3c2)cc1`: the cell number change was -77.8%. In addition, under setting [1], the AC50 is 29.1 µM [falling, single point]. Moreover, under setting [2], the AC50 is 6.51 µM [rising, single point].

Regarding `O=C(CCc1ccccc1)NNC(=O)Nc1ccc(Br)cc1`, the cell number change was 4.91%. In addition, under setting [1], the AC50 was 0.13 µM [rising, full curve, poor fit].

Turning to `CN(CC(=O)Nc1c(Cl)cccc1Cl)C(=O)Cn1[nH]c(=O)c2ccccc2c1=O`, the cell number change is -3.31%. Under setting [1], the AC50 is 0.82 µM [falling, partial curve].

For `COc1ccc2c(CCNC(=O)c3ccco3)c[nH]c2c1`, the cell number change was -12.2%.

For the compound `COc1ccc2oc(=O)c(/C(C)=N/Nc3ccccc3)cc2c1`, the cell number change was -4.53%. The AC50 under setting [1] was 0.651 µM [falling, single point]. For the same compound, under setting [2], the AC50 was 0.411 µM [falling, partial curve, poor fit].

`CCN1CCN(c2ccc(S(=O)(=O)N3CCCCC3)cc2NC(=O)c2cccc(Cl)c2)CC1`: the cell number change was 85.9%. In addition, the AC50 under setting [1] is 18.4 µM [rising, partial curve].

In the case of `Cc1cc(OCC(=O)Nc2ccccc2N2CCOCC2)c(C(C)C)cc1Cl`, the cell number change is -0.859%. The AC50 under setting [2] was 1.46 µM [falling, partial curve].

For the compound `COC(=O)C1(CC2CC(c3cccc(Br)c3)=NO2)CCN(C(=O)OC(C)(C)C)CC1` (stereo not given), the cell number change worked out at 16.8%. The AC50 under setting [2] was 18.4 µM [rising, single point].

As to `Cc1cc(C)cc(OCC(=O)NCc2cc(C)nc3ccccc23)c1`, the cell number change is 12%. Also, the AC50 under setting [2] is 29.1 µM [rising, single point].

Consider `COc1ccc(C(=O)Nc2cc(C)nn2-c2ccc(F)cc2)cc1`, for which the cell number change was -19%. The AC50 under setting [2] was 0.651 µM [rising, single point].

In the case of `O=C(NCc1ccccc1F)c1cccs1`, the cell number change was -3%. Also, under setting [2], the AC50 is 10.3 µM [falling, partial curve].

With `CCc1nonc1NC(=O)c1oc2cc(C)c(C)cc2c1C`, the cell number change was 7.6%. For the same compound, the AC50 under setting [2] was 29.1 µM [rising, single point].

Regarding `CN1CCN(S(=O)(=O)c2ccc(N3CCN(c4ccccc4Cl)CC3)nc2)CC1`, the cell number change was -7.65%. Further, the AC50 under setting [2] was 6.51 µM [falling, single point].

For `CC1(C)N=C(c2ccc(Cl)cc2)C(=O)N1`, the cell number change was found to be 3.77%. For the same compound, the AC50 under setting [1] is 0.58 µM [falling, full curve, poor fit]. For the same compound, the AC50 under setting [2] is 0.259 µM [falling, full curve].

On to `CC(Sc1ccccc1)C(=O)NNC(=O)c1ccncc1` (stereo not given), for which the cell number change amounted to 1.92%. For the same compound, the AC50 under setting [2] was 23.1 µM [rising, single point].

Consider `CCOC(=O)C(Cc1ccccc1)NC(=O)Cn1nnc(-c2ccc(SC)cc2)n1` (stereo not given), for which the cell number change is -15%.

In the case of `COCCNC(=O)c1cn(Cc2c(F)cccc2Cl)nn1`, the cell number change is -20.4%. Moreover, under setting [2], the AC50 was 3.66 µM [falling, full curve, poor fit].

On to `COc1ccc(S(=O)(=O)Nc2c(C)cccc2C)cc1-n1cnnn1`, for which the cell number change is 19.7%.

In the case of `O=C(NCCNS(=O)(=O)c1ccccc1)c1cc(OCC(F)(F)F)ccc1OCC(F)(F)F`, the cell number change is -29.5%.

For `Fc1ccccc1CSc1nc2ccccc2[nH]1`, the cell number change came to 107%. Further, the AC50 under setting [1] was 16.4 µM [rising, partial curve]. Moreover, the AC50 under setting [2] was 20.6 µM [rising, partial curve].

Consider `CCCCCOc1ccc(N2C(=O)C(C)CNC2=S)cc1` (stereo not given), for which the cell number change was -52.3%. For the same compound, the AC50 under setting [1] is 18.4 µM [falling, single point]. Also, the AC50 under setting [2] is 29.1 µM [falling, single point].

Turning to `C/C(=N/Nc1nc(-c2ccccc2)cc(-c2ccccc2)n1)c1ccc(N)cc1`, the cell number change was -23.4%. Under setting [2], the AC50 was 18.4 µM [falling, single point].

As for `COc1ccc(S(=O)(=O)Cc2ccc(C(=O)NCCc3ccc(S(N)(=O)=O)cc3)o2)cc1`, the cell number change was 33.8%. For the same compound, the AC50 under setting [1] was 29.1 µM [rising, single point]. Further, under setting [2], the AC50 was 0.116 µM [rising, full curve, poor fit].

For `CCNc1nc(NCC)nc(N(CC)C(N)=S)n1`, the cell number change was 15.1%. The AC50 under setting [2] is 20.6 µM [rising, single point].

Regarding `COc1ccc(C(=O)N/N=C(\C)CC(=O)Nc2ccccn2)cc1OC`, the cell number change is -3.95%. Further, the concentration at half-maximal activity (AC50) under setting [2] is 3.55 µM [rising, full curve].

Consider `O=C(O)CN1CCNCC1`, for which the cell number change is -13.3%. Besides, the half-maximal activity concentration (AC50) under setting [2] is 0.517 µM [falling, single point].

For `O=C(COc1ccccc1)Nc1c(C(=O)N2CCC(N3CCCCC3)CC2)oc2ccccc12`, the cell number change is -4.75%. Also, the half-maximal activity concentration (AC50) under setting [2] is 4.11 µM [rising, full curve, poor fit].

For `COC(=O)C1=CN(c2ccc(F)cc2)C=C(C(=O)OC)C1c1ccc([N+](=O)[O-])cc1`, the cell number change turned out to be 34.7%.

In the case of `CC1CCN(Cc2cc(=O)oc3ccc(C(C)C)cc23)CC1`, the cell number change is 51.4%. Under setting [1], the AC50 is 7.31 µM [rising, partial curve, poor fit]. Further, the AC50 under setting [2] is 29.1 µM [rising, single point].

In the case of `O=C(CSCCO)Nc1cccc(C(F)(F)F)c1`, the cell number change is -1.01%. The AC50 under setting [2] is 0.326 µM [falling, full curve].

As to `COc1ccccc1NC(=O)Cn1ncc2c1-c1ccccc1OC2`, the AC50 under setting [2] is 1.84 µM [rising, partial curve].

Regarding `Cc1nn(Cc2c(F)c(F)c(F)c(F)c2F)c(C)c1NC(=O)c1nn(C)cc1Br`, the cell number change is -2.31%. Moreover, under setting [2], the AC50 is 0.092 µM [falling, full curve, poor fit].

Regarding `O=C1C=C(c2cccc3c2sc2ccccc23)C[C@@H](c2ccc(F)cc2)C1`, the cell number change is 20.9%. Also, the AC50 under setting [2] was 0.651 µM [rising, full curve, poor fit].

In the case of `CCOC(=O)N/N=C/C=C/c1ccccc1`, the cell number change was -5.78%. Moreover, under setting [1], the AC50 was 0.00517 µM [rising, full curve, poor fit].

On to `CC(=O)c1ccc(NC(=S)Nc2cccc3ccccc23)cc1`, for which the cell number change worked out at 0.495%. Besides, the AC50 under setting [2] was 29.1 µM [rising, single point].

`CCOc1cc(CNc2ccc(S(N)(=O)=O)cc2)ccc1OCC(=O)NC(C)(C)C`: the cell number change was found to be 1.44%. Moreover, under setting [1], the AC50 was 6.31 µM [falling, single point]. Also, the AC50 under setting [2] was 2.82 µM [falling, single point].

Turning to `O=C1N=C(N2CCOCC2)S/C1=C/c1cc2c(cc1[N+](=O)[O-])OCO2`, the cell number change was 0.0261%. In addition, the AC50 under setting [2] was 0.146 µM [rising, partial curve, poor fit].

For `CCc1ccc(NC(=O)CSc2nnc(-c3ccccn3)n2C)cc1`, the cell number change worked out at 5.91%. The AC50 under setting [2] was 4.61 µM [rising, partial curve].

As for `CCOC(=O)c1[nH]c2ccc(Br)cc2c1NC(=O)CCN1CCN(C(=O)OCC)CC1`, the cell number change was -23.3%. Under setting [2], the AC50 was 0.651 µM [falling, single point].

For the compound `CCOC(=O)C1(CCCc2ccccc2)CCN(C(=O)COC)CC1`, the cell number change was found to be 15.7%. The AC50 under setting [2] is 2.59 µM [rising, full curve, poor fit].

For `CCN(Cc1nc(-c2cccc(C)c2)no1)C(=O)c1ccco1`, the cell number change worked out at 35.7%. Also, the AC50 under setting [1] is 5.17 µM [rising, full curve, poor fit]. In addition, under setting [2], the AC50 was 29.1 µM [rising, partial curve].

Consider `O=C(CCCn1cnc([N+](=O)[O-])n1)Nc1cccc(Cl)c1Cl`, for which the cell number change came out at 9.15%. Also, the AC50 under setting [2] is 29.1 µM [rising, single point].

Regarding `N#Cc1c(N2CCN(C(=O)c3ccccc3)CC2)nc(-c2ccccc2)c2c1CCCC2`, the AC50 by setting is: under setting [1], 2.31 µM [rising, single point]; under setting [2], 23.1 µM [rising, single point].

Turning to `Cc1cc(-c2csc3nc[nH]c(=S)c23)cc(C)c1C`, the cell number change was -24.3%. Besides, the AC50 under setting [2] is 32.6 µM [falling, partial curve, poor fit].
